No constants are given. Whether binding was seen depends on the method and setting. Binding seen in cells or lysates may run through a third protein. Some results given as binding are weak or reduced against the parent protein; the word gives no strength. Where a sequence is shown, tags or fusion partners need not be part of it.
Molecular target: GST-GABARAP (human) (UniProt O95166)
Assay: pull-down

Amino acid sequences for entries named in this document (tags omitted).
UniProt O95166: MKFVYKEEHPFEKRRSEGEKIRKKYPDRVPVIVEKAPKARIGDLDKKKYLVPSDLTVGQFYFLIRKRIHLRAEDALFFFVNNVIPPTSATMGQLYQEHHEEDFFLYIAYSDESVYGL

B1: MBP-HsC53 (protein, UniProt Q96JB5 1-506)
chain: MEDHQHVPIDIQTSKLLDWLVDRRHCSLKWQSLVLTIREKINAAIQDMPESEEIAQLLSGSYIHYFHCLRILDLLKGTEASTKNIFGRYSSQRMKDWQEIIALYEKDNTYLVELSSLLVRNVNYEIPSLKKQIAKCQQLQQEYSRKEEECQAGAAEMREQFYHSCKQYGITGENVRGELLALVKDLPSQLAEIGAAAQQSLGEAIDVYQASVGFVCESPTEQVLPMLRFVQKRGNSTVYEWRTGTEPSVVERPHLEELPEQVAEDAIDWGDFGVEAVSEGTDSGISAEAAGIDWGIFPESDSKDPGGDGIDWGDDAVALQITVLEAGTQAPEGVARGPDALTLLEYTETRNQFLDELMELEIFLAQRAVELSEEADVLSVSQFQLAPAILQGQTKEKMVTMVSVLEDLIGKLTSLQLQHLFMILASPRYVDRVTEFLQQKLKQSQLLALKKELMVQKQQEALEEQAALEPKLDLLLEKTKELQKLIEADISKRYSGRPVNLMGTSL
For B1, the binding was “binds”.
